# According to patent US8519154B2, “Method for treatment of bronchial asthma” (Council of Scientific & Industrial Research, priority 2011, dated 2013):
# System: mice
# Experiment: Charcoal meal transit time
# Type: in vivo
# Conditions: 0.1 mg/kg (i.p.)
# Description: […] charcoal suspension (20 ml/kg prepared as a 5% solution in 10% gum acacia) was administered perorally 60 min after D8 administration (perorally). After 30 min, charcoal meal administration small intestines were excised and aligned parallel to a ruler. Ratio of the distance traveled by the charcoal meal to the total length of the small intestine was determined for the control (untreated) and Compound I treated mice [Ali, B. H. Bashir, A A. The effect of alpha 2-receptor agonists and antagonists on gastro-intestinal transit time. Clinical and Experimental Pharmacology and Physiology, 20 (1993) 1-6].
compound,measurement,value
"CN1[C@@H]2CC[C@H]1CC(OC(=O)C(CO)c1ccccc1)C2.CN1[C@@H]2CC[C@H]1CC(OC(=O)C(CO)c1ccccc1)C2.O=S(=O)(O)O (stereo partly shown) [Atropine sulphate, reference compound]",% Transport (Mean ± SEM),41.7 ± 2.52 %
